Reference: PubChem BioAssay AID2685 (National Center for Advancing Translational Sciences (NCATS), 2010)
The other results are listed elsewhere or left out. These are further read-outs of the screen, such as a control signal, another cell line or another target. No call is given for them. Compounds called inactive in the main read-out are mostly missing here. The note in brackets gives the kind of curve behind each potency; many fits are weak.

Test: qHTS Assay for Lipid Storage Modulators in Drosophila S3 Cells;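 on cell number change: cells counted by Cell Tracker Red CMTPX staining in the red channel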
Conditions: BODIPY lipid droplet fluorescence, 18-24 h; for cell number change: measured here: cell count max response, cells fed with added oleic acid
Method in brief: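 Drosophila S3 cells loaded with oleic acid (400 uM, as added) and compounds at several concentrations; lipid droplets imaged by 488-nm laser-scanning cytometry, 500–530 nm intensity and object ratio to cell channel. Percent activity normalized to 20 uM Triacsin C.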

[1] = measured here: cell number channel AC50, cells fed with added oleic acid
[2] = measured here: lipid fluorescence (Fed channel) AC50, cells fed with added oleic acid

Compound	AC50 [1]	AC50 [2]	cell number change [%]
CN1CCN(C(=S)Nc2cc([N+](=O)[O-])ccc2Cl)CC1	2.91 µM [rising, partial curve]	0.00461 µM [falling, full curve, poor fit]	–
O=C1CSC(c2cccnc2)N1c1cccc(Cl)c1 (stereo not given)	0.517 µM [falling, single point]	–	3.3
Cc1ccc(COc2ccc3c(c2)OCO3)cc1	0.411 µM [rising, partial curve, poor fit]	29.1 µM [rising, single point]	9.66
Cc1ccc(C)c(S(=O)(=O)N2CCN(C(C(=O)Nc3ccc(F)cc3)c3ccccc3)CC2)c1 (stereo not given)	4.11 µM [falling, partial curve]	–	33.3
CCN(CC)c1ccc(NC(=O)/C=C\c2ccccc2Cl)cc1	2.59 µM [rising, partial curve]	2.31 µM [rising, partial curve]	–
Cc1ccc(O)c(CNc2ccccn2)c1	18.4 µM [rising, single point]	0.58 µM [falling, partial curve]	75.5
COc1ccc(-c2csc(NC(=O)C3CCN(C(=O)c4ccc(F)cc4)CC3)n2)cc1OC	29.1 µM [falling, single point]	–	-50
O=C(O)C1(c2ccccc2)CCN(S(=O)(=O)c2ccc(F)c(F)c2)CC1	–	6.51 µM [rising, single point]	9.91
COc1ccc(NC(=O)CSc2nnc(NC(=O)c3ccco3)s2)cc1	1.16 µM [rising, single point]	1.16 µM [rising, single point]	12.8
O=C(N1CCOCC1)N1CCC(n2nnc3cc(F)ccc32)CC1	20.6 µM [falling, partial curve, poor fit]	20.6 µM [falling, partial curve]	-64.8
Fc1ccc(Nc2nc3ccccc3s2)cc1	–	–	14.5
O/N=C/c1cn(-c2ccccc2)nn1	–	–	-19.9
CC(CO)NCC12CC3CC(CC(C3)C1)C2 (stereo not given)	–	–	-0.955
CCc1nnc(SC(C)C(=O)Nc2nccs2)n1C (stereo not given)	–	–	11.8
COc1ccc(CC(=O)N/N=C(\C)CC(=O)Nc2ccc(N(C)C)cc2)cc1	–	–	20.9
COc1ccc2[nH]c(=O)c(CN(Cc3cccs3)S(=O)(=O)c3cccc4nsnc34)cc2c1	4.11 µM [rising, single point]	6.51 µM [rising, single point]	–
COc1ccc2cc(C(=O)C3CCCN(C(=O)CCc4ccccn4)C3)ccc2c1 (stereo not given)	–	29.1 µM [falling, single point]	-22.7
O=C1CCCN1CCCNc1ncnc2sccc12	–	14.6 µM [falling, partial curve]	4.47
COc1ccc(S(=O)(=O)NCC2CCC(C(=O)NCC(OC)OC)CC2)cc1 (stereo not given)	–	29.1 µM [falling, single point]	-30.4
CCC(=O)N1CCN(c2ccccc2NC(=O)c2ccc(OC)c(Cl)c2)CC1	4.61 µM [rising, partial curve]	20.6 µM [rising, partial curve]	85.1

Compound	AC50 [1]	AC50 [2]	cell number change [%]
CCNc1nc(NCC)nc(OCCNS(=O)(=O)c2cc(C)ccc2C)n1	0.184 µM [rising, full curve, poor fit]	–	–
CCN(CC)C(=O)COC(=O)C1CCN(S(=O)(=O)c2ccc3c(c2)OCCO3)CC1	0.206 µM [falling, full curve, poor fit]	6.51 µM [falling, single point]	3.11
Cc1nn(CCCC(=O)N2CCN(c3ccc(F)cc3)CC2)c(C)c1[N+](=O)[O-]	32.6 µM [rising, single point]	–	36.6
CC(=O)Nc1ccc(NC(=O)Oc2ccccc2)cc1	–	–	-15.1
COc1ccc(C2C(C#N)=C(N)N(c3ccccc3)C3=C2C(=O)CCC3)cc1Cn1cc([N+](=O)[O-])cn1 (stereo not given)	29.1 µM [falling, single point]	29.1 µM [falling, single point]	-35.4
COc1ccc(S(=O)(=O)N2CCCCC2)cc1NC(=O)c1ccc(OC)c(OC)c1	–	–	51.4
COC(=O)C1=C(C)Nc2c(c(=O)n(C)c(=O)n2C)C1c1ccc(C)cc1 (stereo not given)	–	–	27.5
Cc1csc(NC(=O)CSc2nnc(Cn3c(=O)sc4ccccc43)n2-c2ccccc2)n1	–	23.1 µM [falling, single point]	-17.2
O=C1c2ccccc2N2C(=O)c3ccccc3[C@H]2N1c1ccccc1	–	–	-2.35
CC1(C)CC(=O)C(C(C2=C(O)CC(C)(C)CC2=O)c2ccc(Br)s2)C(=O)C1 (stereo not given)	32.6 µM [falling, single point]	–	-37.5
Cc1cc2ccccc2c(=O)n1CC(=O)NCC(=O)N1CCN(c2ccccc2F)CC1	0.0058 µM [falling, full curve, poor fit]	–	-25
COc1ccc(C(=O)n2c(N)nc3ccccc32)cc1OC	–	–	-9.85
Cc1onc(C(=O)N2CCN(Cc3ccccc3)CC2)c1[N+](=O)[O-]	29.1 µM [rising, single point]	0.651 µM [falling, full curve]	40.2
C/C(CC(=O)NCCCN1CCOCC1)=N\NC(=O)COc1cccc2ccccc12	–	25.9 µM [rising, single point]	–
O=C(CC1(C(=O)O)CCCC1)N1CCOCC1	6.51 µM [falling, single point]	6.51 µM [falling, single point]	–
CCCCC(=O)Nc1ccc2c(c1)nc(CCN1CCN(c3ccccn3)CC1)n2C	–	–	7.8
COc1ccc(NC(=O)c2cc(-c3ccc(C)o3)nc3ccccc23)cc1OC	2.91 µM [rising, partial curve]	2.31 µM [rising, partial curve]	-50
COC(=O)c1cc(CNC(=O)c2ccccc2OCc2c(C)noc2C)ccc1OC	–	–	-1.39
CCCCCN(C(=O)CCC(=O)OCC(=O)N(CC#N)c1ccccc1)c1c(N)n(CCCC)c(=O)[nH]c1=O	9.2 µM [rising, partial curve]	29.1 µM [rising, single point]	59.6
Cc1ccc(-n2c(SCC(=O)Nc3ccc4c(c3)OCO4)nnc2-c2ccccn2)cc1	0.164 µM [rising, full curve, poor fit]	0.184 µM [rising, full curve, poor fit]	-15.8

Compound	AC50 [1]	AC50 [2]	cell number change [%]
Cc1ccc(C)n1-c1cc(S(=O)(=O)N2CCOCC2)ccc1N1CCCC1	–	20.6 µM [rising, partial curve]	11.1
O=C(NCc1cccs1)c1cc(-c2ccccc2)nc2ccccc12	–	9.2 µM [rising, partial curve]	2.76
O=c1c2cc3c(=O)n(CC4CCCO4)c(=O)c3cc2c(=O)n1CC1CCCO1 (stereo not given)	–	16.4 µM [falling, partial curve, poor fit]	-7.55
O=C(NCCO)c1ccc2nc(Cc3cccc(Cl)c3)oc2c1	–	–	-3.72
C#CCn1cc(/C=N/NC(=O)c2cc3ccccc3o2)c2ccccc21	5.8 µM [rising, single point]	–	58.9
CCCNc1nc(OC(C(F)(F)F)C(F)(F)F)nc(OC(C(F)(F)F)C(F)(F)F)n1	29.1 µM [falling, single point]	–	-39.2
N#Cc1ccc(C(=O)Nc2ccc(S(=O)(=O)NC3=NCCCCC3)cc2)cc1	16.4 µM [rising, partial curve]	5.17 µM [rising, partial curve]	89.5
CN(C)c1oc(-c2ccc(Cl)cc2)nc1S(=O)(=O)c1ccccc1	–	7.31 µM [rising, partial curve]	–
CCOC(=O)c1c(C)nc(C(Cl)(Cl)Cl)nc1N	29.1 µM [falling, single point]	–	-31.8
O=C(O)C1(c2cccc(Cl)c2)CCC1	4.11 µM [rising, single point]	–	-14.1
CCC1CCCCN1CCCNC(=O)c1ccc2c(c1)N(Cc1ccc(F)cc1)C(=O)c1ccccc1S2=O (stereo not given)	–	2.59 µM [falling, single point]	8.26
CCOc1ccc(S(=O)(=O)NC(C)C(=O)NCc2ccccn2)cc1 (stereo not given)	–	0.206 µM [rising, single point]	–
CN(C)c1oc(COc2ccc(F)cc2)nc1C#N	–	0.259 µM [rising, full curve, poor fit]	21.6
Cc1cc(S(=O)(=O)NCc2ccccc2)ccc1OCC(=O)NCc1cccnc1	–	29.1 µM [falling, single point]	16.8
S=C(c1ccc(-c2ccccc2Cl)o1)N1CCOCC1	–	0.461 µM [rising, single point]	11.1
CCOC(=O)C1CCCN(C(=O)c2ccc(CNS(=O)(=O)c3ccc(C)cc3)cc2)C1 (stereo not given)	0.164 µM [falling, full curve, poor fit]	0.164 µM [falling, full curve, poor fit]	6.62
O=C(Nc1cccs1)Nc1ccc(Br)cc1F	23.1 µM [falling, single point]	0.103 µM [rising, full curve, poor fit]	-35.2
Clc1ccccc1CSc1nc2ccncc2[nH]1	–	–	-18.6
COCCCN1C(=O)N(c2ccc(F)cc2)C(=O)C1CC(=O)Nc1ccccc1 (stereo not given)	–	–	10.8
COc1ccc(C(CNC(=O)COc2ccc(Br)cc2F)N2CCCC2)cc1 (stereo not given)	–	3.66 µM [rising, partial curve]	-19.4

Reformatted in CSV form: 2 of the compounds above.
Compound,AC50 [1],AC50 [2],cell number change [%]
CN(C)c1oc(COc2ccc(F)cc2)nc1C#N,–,"0.259 µM [rising, full curve, poor fit]",21.6
COc1ccc(C(CNC(=O)COc2ccc(Br)cc2F)N2CCCC2)cc1 (stereo not given),–,"3.66 µM [rising, partial curve]",-19.4
